Reference: patent publication US4406883A, “Controlled release suppositories consisting essentially of a linear polymer particularly, polyvinyl pyrrolidones” (Merrell Dow Pharmaceuticals Inc., priority 1981, dated 1983)
Counter-ions that a name gives are not always drawn.

Assays:
[1] = cited from earlier work

CCN(CC)CC(=O)Nc1c(C)cccc1C [lignocaine hydrochloride]
absorption after rectal administration (dog, result in words): well absorbed | % total administered dose excreted, total faeces (male beagle, rectal, 48 h): 8% | oral dose metabolised in passing through the liver in the portal circulation [1]: approximately 65%
